# PubChem BioAssay AID504808 | Drosophila RNAi Screening Center, 2011
# Purpose: 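Genes whose loss lifts activity of an E2F-responsive reporter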 (primary screen)
# System: Drosophila S2 cells
# Reagent: long dsRNA against Drosophila genes
# Measured: 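Dual luciferase plate measurements; E2F-specific signal taken as firefly over Renilla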
# Scale: E2F firefly: higher = more E2F reporter activity; Renilla normaliser: higher = more normaliser reporter signal
# Hit rule: 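Called active if the normalised E2F reporter went up by over 50%; the cutoff is arbitrary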
# The deposit covers about 21,000 reagents; shown is a random part of those that have a named target and a result. Of all reagents, 18 (0.084%) are marked active. 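Raw counts without plate normalisation, one of two replicates; the ratio scores behind the calls were not deposited.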 A plus sign joins genes that one reagent is predicted to hit. No sequences are given here. Not stated in the record: the amount of reagent, the time to read-out.
Gene,DRSC id,"E2F firefly, rep 1","Renilla normaliser, rep 1",call
ETH (Ecdysis triggering hormone),DRSC04612,1.07e5,4404,inactive
CG1354,DRSC17902,1.08e5,5340,inactive
CycB (Cyclin B),DRSC04605,73027,3620,inactive
Tcs6 + PIG-P,DRSC13742,85882,2547,inactive
Tcs6 + PIG-P,DRSC14893,1.04e5,5794,inactive
orb2,DRSC10540,53996,2929,inactive
orb2,DRSC10541,95983,3858,inactive
orb2,DRSC10542,74175,3449,inactive
Tpst (Tyrosylprotein sulfotransferase),DRSC18989,86564,3842,inactive
Tpst (Tyrosylprotein sulfotransferase),DRSC19696,94795,4486,inactive
Tpst (Tyrosylprotein sulfotransferase),DRSC19723,1.34e5,6109,inactive
Tpst (Tyrosylprotein sulfotransferase),DRSC19724,3688,228,inactive
Rab23,DRSC12305,1.42e5,7025,inactive

5 of these entries, reformatted.
Tcs6 + PIG-P [DRSC14893]
- E2F firefly, rep 1: 1.04e5
- Renilla normaliser, rep 1: 5794
- call: inactive

orb2 [DRSC10540]
- E2F firefly, rep 1: 53996
- Renilla normaliser, rep 1: 2929
- call: inactive

orb2 [DRSC10541]
- E2F firefly, rep 1: 95983
- Renilla normaliser, rep 1: 3858
- call: inactive

orb2 [DRSC10542]
- E2F firefly, rep 1: 74175
- Renilla normaliser, rep 1: 3449
- call: inactive

Tpst (Tyrosylprotein sulfotransferase) [DRSC18989]
- E2F firefly, rep 1: 86564
- Renilla normaliser, rep 1: 3842
- call: inactive

More records follow.
Gene,DRSC id,"E2F firefly, rep 1","Renilla normaliser, rep 1",call
CG13585,DRSC04221,1.12e5,4508,inactive
CG15754,DRSC19719,1.34e5,6539,inactive
CG5645,DRSC10532,78683,3679,inactive
jv (javelin),DRSC08831,1.16e5,5622,inactive
jv (javelin),DRSC08832,1.35e5,4545,inactive
CG31867,DRSC03338,1.45e5,5227,inactive
sff (sugar-free frosting),DRSC10590,67199,3778,inactive
Tim17a1,DRSC14184,1.50e5,6911,inactive
jus (julius seizure),DRSC14861,83446,4045,inactive
jus (julius seizure),DRSC14862,1.24e5,7113,inactive
CG30098,DRSC05605,1.56e5,5029,inactive
Rbfox1 (RNA-binding Fox protein 1),DRSC09034,1.22e5,5033,inactive
Rbfox1 (RNA-binding Fox protein 1),DRSC10157,1.18e5,5972,inactive
Rbfox1 (RNA-binding Fox protein 1),DRSC10320,80628,4665,inactive
sced (scrambled),DRSC04990,75591,3457,inactive
CG7016,DRSC16174,1.10e5,6000,inactive
pip (pipe),DRSC11382,1.38e5,6320,inactive
Rbbp5 (Retinoblastoma binding protein 5),DRSC11778,1.32e5,7026,inactive
side-IV (sidestep IV),DRSC14833,1.04e5,5440,inactive
CG15059,DRSC19633,2.46e5,6734,inactive
CG4757,DRSC14130,1.37e5,6217,inactive
